The target of the assay is T1, GST-PAF15 wild-type (Xenopus PAF15) (Xenopus) (UniProt Q5HZL4).
T1 sequence: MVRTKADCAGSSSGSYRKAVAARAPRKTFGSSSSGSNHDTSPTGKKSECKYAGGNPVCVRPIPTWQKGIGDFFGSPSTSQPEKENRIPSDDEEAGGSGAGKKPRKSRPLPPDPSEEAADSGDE
The assay is described as follows: affinity purification with mass spectrometry; Sepharose beads bound to GST or GST-PAF15 incubated with Xenopus interphase egg extracts; bound proteins eluted by cleavage of GST with thrombin; nanoLC-MS/MS; only the target purified.

No constants are given. Whether binding was seen depends on the method and setting. In cells and extracts the contact can be indirect. Here binding means that the protein was enriched with, or labelled near, the bait; the list need not be complete. Sequences can lack the tags named with a protein.

In the case of “USP7 (Ubiquitin-Specific Protease 7), endogenous Xenopus (enzyme)”, the binding result is listed as “binds”.
